# In the supplement of paper PMC3334620:
# Whole data set: some 33,000 sequences, median “E-score (-0.5 to 0.5)” near -0.0034, cut for the highest 2% near 0.25. The list shows a part of the results.
# Biological target: T1, Yap3 (UniProt P38749)
# T1 sequence: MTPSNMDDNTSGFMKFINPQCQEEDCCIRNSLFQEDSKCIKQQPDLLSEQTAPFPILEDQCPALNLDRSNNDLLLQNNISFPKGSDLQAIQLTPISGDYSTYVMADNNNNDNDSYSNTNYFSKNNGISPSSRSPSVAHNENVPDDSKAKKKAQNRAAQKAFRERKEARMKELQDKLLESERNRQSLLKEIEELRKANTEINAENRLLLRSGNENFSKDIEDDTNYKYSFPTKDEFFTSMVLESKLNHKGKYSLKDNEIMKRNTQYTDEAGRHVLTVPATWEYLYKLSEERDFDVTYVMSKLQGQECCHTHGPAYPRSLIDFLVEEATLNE
# Assay: PBM E-score (8-mer binding enrichment) (E-score (-0.5 to 0.5)); higher = stronger / more preferred TF binding
# Conditions: protein concentration: 100 nM; construct: GST-full length
# Method in brief: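 E-scores (a modified Wilcoxon-Mann-Whitney statistic) were assigned by the Universal PBM Analysis Suite to every ungapped eight-base word pooled with its reverse complement. The input came from universal all-10-mer Agilent arrays made double-stranded by primer extension and probed with GST-tagged yeast transcription factors at about 100-200 nM. Fluorescent anti-GST detected bound protein, and masliner normalised the scans.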
row,Sequence,PBM E-score
1,ATACACTC,0.0757
2,CTCAAGGC,-0.0478
3,ATGTGCTC,0.0695
4,ATCCCATG,-0.00536
5,CAACGTCG,-0.0111
6,GACGCGGA,-0.188
7,ACTTTACC,0.149
8,TGGGATAA,0.0237
9,TCCTAGGA,-0.119
10,CCCCCCTA,-0.247
11,CGCATATA,0.00761
12,GGCGCGTA,-0.139
13,GATATTCC,0.12
14,TATGCACA,0.031
15,GAGTCGAA,0.0765
16,ATGATTCC,0.149
17,CCAGCATA,0.034
18,ACACTTCA,0.0742
19,CTTCAGGA,-0.0162
20,AGTCAAAA,0.0355
21,GTCTCGGA,0.00612
22,AGGCTTGC,-0.152

row,Sequence,PBM E-score
1,AGAGCTCG,-0.0652
2,CCTGATAG,-0.142
3,ATCGGTCC,-0.0985
4,CCCATAGA,-0.0716
5,GTGCGCAC,0.159
6,CGCTAAAA,0.0721
7,ACATCGGT,-0.192
8,AAGAGCAA,-0.0696
9,AAGTGACG,0.0449
10,GAAAGTAA,0.0872
11,ACCGCCAG,-0.0424
12,CTTCATGC,-0.0893
13,AGCGTCAC,-0.111
14,CTTGACCC,-0.207
15,AGATCAGG,-0.117
16,GTTCTATA,0.0395
17,TAAAGTAA,0.136
18,ACCTCAAG,-0.104
19,CATTGAAC,0.07
20,AATGACAT,0.162
21,CATACCTA,-0.0983
22,CAATAGAG,-0.0767

row,Sequence,PBM E-score
1,ACGTGCCG,-0.0947
2,AGCACGGG,-0.128
3,GCCGAGGA,0.051
4,GAGGTGGA,-0.243
5,ACCGAAGG,-0.183
6,AGAAGTAT,0.21
7,CGCGTAGA,0.0492
8,GGAGCAGA,-0.0901
9,AGAAGGTC,0.0815
10,CCCCCGGG,-0.383
11,TCGTGACA,-0.046
12,ACCACAGC,-0.0654
13,CTAGTTAA,0.26
14,CTGCGGAC,-0.205
15,ACTGCAGA,-0.0419
16,AACTCGGC,0.165
17,GGGTCCAC,-0.369
18,CTGGAAAA,0.0934
19,AAGACTGG,-0.0292
20,CGACAGAG,-0.0711
21,CGAGTCCG,-0.122
22,TACTAAGA,0.242

row,Sequence,PBM E-score
1,AGATAGGC,-0.0411
2,CAGGGGTC,-0.22
3,CCTCGTCG,-0.0231
4,TGGAGCCA,-0.194
5,AGAAATTA,0.202
6,CAACGAAC,0.227
7,AGAGGAGA,-0.173
8,GGGGTCAC,-0.296
9,AACTACTT,0.092
10,CAAGCGGG,-0.252
11,GTGGAACA,-0.0444
12,CTGCCGGC,-0.146
13,CTACCTAC,0.0255
14,CACAGGTA,-0.0333
15,CCTTATAG,0.00973
16,ACCCTTCA,-0.0699
17,TAGATTGA,-0.0683
18,ACTAAGCC,0.042
19,CCATATCG,0.0308
20,TACCCACA,-0.0045
